From the supplement of paper PMC7661543
The effect of the compound repeats well; differences between the knockouts mostly do not.

System: SKBR3
Test: relative cell number vs DMSO control (72 h) (% of DMSO); higher = less growth inhibition (more cells)
Experimental: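 QMAP-Seq: a pool of 5 breast cancer cell lines (ZR-75-1, SKBR3, HCC-38, MDA-MB-231, BT-20), each carrying 12 doxycycline-inducible Cas9 sgRNA perturbations (11 knockouts plus non-targeting sgNT), was treated with compounds for 72 h at four 10-fold doses (10 nM-10 uM or 1 nM-1 uM range). Barcodes were amplified and sequenced, and cell number was interpolated from 293T spike-in standard curves. The result is expressed as % of the median of DMSO wells. Two biological replicates.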

C=C1C[C@@H]2[C@H](CC[C@]3(C)C(=O)CC[C@@H]23)[C@@]2(C)C=CC(=O)C=C12 [Exemestane]
Conditions	relative cell number
sgRNA knockout: sgATF3, 10 nM	118
sgRNA knockout: sgATF3, 100 nM	83.2
sgRNA knockout: sgATF3, 1000 nM	136
sgRNA knockout: sgATF3, 10000 nM	91.3
sgRNA knockout: sgATF4, 10 nM	107
sgRNA knockout: sgATF4, 100 nM	100
sgRNA knockout: sgATF4, 1000 nM	100
sgRNA knockout: sgATF4, 10000 nM	81.29
sgRNA knockout: sgATF6, 10 nM	92.5
sgRNA knockout: sgATF6, 100 nM	91.3
sgRNA knockout: sgATF6, 1000 nM	119
sgRNA knockout: sgATF6, 10000 nM	81
sgRNA knockout: sgATG7, 10 nM	131
sgRNA knockout: sgATG7, 100 nM	118
sgRNA knockout: sgATG7, 1000 nM	102.5
sgRNA knockout: sgATG7, 10000 nM	101
sgRNA knockout: sgERN1, 10 nM	108
sgRNA knockout: sgERN1, 100 nM	103
sgRNA knockout: sgERN1, 1000 nM	113
sgRNA knockout: sgERN1, 10000 nM	107.5
sgRNA knockout: sgHSF1, 10 nM	106
sgRNA knockout: sgHSF1, 100 nM	87.9
sgRNA knockout: sgHSF1, 1000 nM	98.9
sgRNA knockout: sgHSF1, 10000 nM	99.2
sgRNA knockout: sgHSF2, 10 nM	109
sgRNA knockout: sgHSF2, 100 nM	93.3
sgRNA knockout: sgHSF2, 1000 nM	122
sgRNA knockout: sgHSF2, 10000 nM	79.6
sgRNA knockout: sgKEAP1, 10 nM	104
sgRNA knockout: sgKEAP1, 100 nM	92.9
sgRNA knockout: sgKEAP1, 1000 nM	108
sgRNA knockout: sgKEAP1, 10000 nM	94.5
sgRNA knockout: sgNFE2L2, 10 nM	108
sgRNA knockout: sgNFE2L2, 100 nM	85.9
sgRNA knockout: sgNFE2L2, 1000 nM	111
sgRNA knockout: sgNFE2L2, 10000 nM	72.4
sgRNA knockout: sgSLC35F2, 10 nM	102
sgRNA knockout: sgSLC35F2, 100 nM	104
sgRNA knockout: sgSLC35F2, 1000 nM	93.3
sgRNA knockout: sgSLC35F2, 10000 nM	110
sgRNA knockout: sgXBP1, 10 nM	104
sgRNA knockout: sgXBP1, 100 nM	109.4
sgRNA knockout: sgXBP1, 1000 nM	119
sgRNA knockout: sgXBP1, 10000 nM	112

FC(F)c1nc2ccccc2n1-c1nc(N2CCOCC2)nc(N2CCOCC2)n1 [ZSTK474]
Conditions	relative cell number
sgRNA knockout: sgATF3, 10 nM	80.9
sgRNA knockout: sgATF3, 100 nM	95.8
sgRNA knockout: sgATF3, 1000 nM	59.8
sgRNA knockout: sgATF3, 10000 nM	35.6
sgRNA knockout: sgATF4, 10 nM	90.5
sgRNA knockout: sgATF4, 100 nM	108
sgRNA knockout: sgATF4, 1000 nM	52.8
sgRNA knockout: sgATF4, 10000 nM	33.9
sgRNA knockout: sgATF6, 10 nM	88.1
sgRNA knockout: sgATF6, 100 nM	93.9
sgRNA knockout: sgATF6, 1000 nM	50.2
sgRNA knockout: sgATF6, 10000 nM	31.1
sgRNA knockout: sgATG7, 10 nM	98.7
sgRNA knockout: sgATG7, 100 nM	93.7
sgRNA knockout: sgATG7, 1000 nM	52.4
sgRNA knockout: sgATG7, 10000 nM	45.55
sgRNA knockout: sgERN1, 10 nM	87.2
sgRNA knockout: sgERN1, 100 nM	106
sgRNA knockout: sgERN1, 1000 nM	51.3
sgRNA knockout: sgERN1, 10000 nM	29.3
sgRNA knockout: sgHSF1, 10 nM	74.6
sgRNA knockout: sgHSF1, 100 nM	79.6
sgRNA knockout: sgHSF1, 1000 nM	45.8
sgRNA knockout: sgHSF1, 10000 nM	39.4
sgRNA knockout: sgHSF2, 10 nM	81.4
sgRNA knockout: sgHSF2, 100 nM	74.5
sgRNA knockout: sgHSF2, 1000 nM	56.3
sgRNA knockout: sgHSF2, 10000 nM	30.3
sgRNA knockout: sgKEAP1, 10 nM	84.8
sgRNA knockout: sgKEAP1, 100 nM	92.8
sgRNA knockout: sgKEAP1, 1000 nM	54.4
sgRNA knockout: sgKEAP1, 10000 nM	39.2
sgRNA knockout: sgNFE2L2, 10 nM	90.9
sgRNA knockout: sgNFE2L2, 100 nM	92.2
sgRNA knockout: sgNFE2L2, 1000 nM	60.4
sgRNA knockout: sgNFE2L2, 10000 nM	41.7
sgRNA knockout: sgSLC35F2, 10 nM	93.7
sgRNA knockout: sgSLC35F2, 100 nM	88.5
sgRNA knockout: sgSLC35F2, 1000 nM	44
sgRNA knockout: sgSLC35F2, 10000 nM	29.8
sgRNA knockout: sgXBP1, 10 nM	96.9
sgRNA knockout: sgXBP1, 100 nM	106
sgRNA knockout: sgXBP1, 1000 nM	53.7
sgRNA knockout: sgXBP1, 10000 nM	43.9
